# Experimental data from patent US6787359B1, “Gene transfer methods” (Takara Shuzo Co., Ltd., priority 1998, dated 2004).
# At least one structure is not confirmed: it was looked up by name or label, or the drawing left a doubt.
# System: Human myelocytic leukemia HL-60 cells
# Experiment: Ampho-EGFP gene transfer into cells pre-cultured in medium containing deferoxamine
# Format: cell-based
# Details: HL-60 cells pre-treated with deferoxamine for 20 hours
compound,measurement,value
CC(=O)N(O)CCCCCNC(=O)CCC(=O)N(O)CCCCCNC(=O)CCC(=O)N(O)CCCCCN [deferoxamine],Gene transfer efficiency (in words),increase in gene transfer efficiency was observed
